Some of the results follow.

The target of the test is T1, OsSMF1 (Oryza sativa, UniProt Q6ZLB0 1-436).
T1 sequence: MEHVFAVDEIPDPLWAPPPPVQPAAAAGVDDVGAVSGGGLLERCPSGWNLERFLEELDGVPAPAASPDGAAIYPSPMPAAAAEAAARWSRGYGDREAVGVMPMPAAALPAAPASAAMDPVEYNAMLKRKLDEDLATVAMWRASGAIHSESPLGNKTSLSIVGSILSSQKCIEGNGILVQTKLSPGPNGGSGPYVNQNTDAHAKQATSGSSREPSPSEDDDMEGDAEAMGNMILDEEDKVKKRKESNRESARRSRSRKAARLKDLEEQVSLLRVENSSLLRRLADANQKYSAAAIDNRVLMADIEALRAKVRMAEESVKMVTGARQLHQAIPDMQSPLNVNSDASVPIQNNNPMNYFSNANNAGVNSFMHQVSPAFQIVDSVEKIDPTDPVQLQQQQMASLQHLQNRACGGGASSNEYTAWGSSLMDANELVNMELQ
Kind of test: protein-binding microarray (RPBM); PBS, 2% BSA, 51.3 ng/ul salmon testes DNA, 50 uM zinc acetate, 200 nM TF, 25 C, 1 h; high values mean tight binding. The settings on record: protein: recombinant; tags: N-terminal polyhistidine and DsRed monomer fusion (pET32a); chain copies: 2; label: CyDye5-dUTP incorporated in the synthesized complementary strand; 3' TTTTT single-stranded linker to array surface; dsDNA, one strand shown. The gist of the method: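 Transcription factors, each fused N-terminally to a polyhistidine tag and DsRed, were expressed in E. coli BL21-CodonPlus and purified on Ni–NTA. A custom Agilent array was made double-stranded by primer extension with Cy5-dUTP and blocked with 2% BSA. It was incubated with 200 nM protein in PBS, 2% BSA, salmon testes DNA and 50 µM zinc acetate at 25 °C for 1 h, then washed. The binding signal is per-feature fluorescence intensity (arbitrary units) read on an Axon 4000B scanner.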
Turning to “CAAGGGTCATGTCCGCCTGTGAAAATCAGACCTCCACGTCCGGAGTCACCTAGTGCAG”, the binding signal was 3380 fluorescence intensity (a.u.).

Take “ATTTATTTTAACTTATATCCATACTTTAGAATCACCCATACGGAGTCACCTAGTGCAG”: the binding signal was 28500 fluorescence intensity (a.u.).

“GCTATACACTGCTGGATGCCTCTTGCTGTGTACGTGTAGCCGGAGTCACCTAGTGCAG”: the binding signal is 3810 fluorescence intensity (a.u.).

“ATTCCAATTCCAGCTCAATGCTGCACGGAATCTCCTCTTCCGGAGTCACCTAGTGCAG”: the binding signal is 4140 fluorescence intensity (a.u.).

“GCACCCGCGCGTGCAGAACCCATGGATGGGGTCACCACCACGGAGTCACCTAGTGCAG”: the binding signal is 8340 fluorescence intensity (a.u.).

With “ACCGCCTCACTCCATCCACCGCACCACCACCACTACCCTGCGGAGTCACCTAGTGCAG”, the binding signal is 3930 fluorescence intensity (a.u.).

Take “GCGTACCCCGTGGTCCCCGTGGATTCATGGACCGTGGTCACGGAGTCACCTAGTGCAG”: the binding signal is 3820 fluorescence intensity (a.u.).

With “TTCTACTCTCCCACTCCTCTCTAACCACTGTACTATATACCGGAGTCACCTAGTGCAG”, the binding signal was 9980 fluorescence intensity (a.u.).

As for “CATGTGCATTGTGTCAAAGGCTGATCTGTTTTCTTTTCCTCGGAGTCACCTAGTGCAG”, the binding signal was 3210 fluorescence intensity (a.u.).

As for “CCAATCACGTCCCACCGAATCGCCACGTCAGCTCTGGTCCCGGAGTCACCTAGTGCAG”, the binding signal was 26700 fluorescence intensity (a.u.).

Turning to “TTGAACCCCGTGTACATCAACAAACCACGTGTCCATCAAGCGGAGTCACCTAGTGCAG”, the binding signal is 6220 fluorescence intensity (a.u.).

For “ATCGATCGATAGCCCCGTGACGTCAAACGTCGTTCGTTGTCGGAGTCACCTAGTGCAG”, the binding signal is 18200 fluorescence intensity (a.u.).

“CACAAGAGCAGACGACGGCATTGCGATCCCAAGCAGCAGCCGGAGTCACCTAGTGCAG”: the binding signal was 24600 fluorescence intensity (a.u.).

In the case of “GCGTTGAGCGTGGTTGATGGGCCTTCTTTACGTGTATTTTCGGAGTCACCTAGTGCAG”, the binding signal was 3780 fluorescence intensity (a.u.).

Turning to “ATCTGGAGTCGTCGTCGTCGTCGTCGTCGACTTGTCATCCCGGAGTCACCTAGTGCAG”, the binding signal was 3860 fluorescence intensity (a.u.).

Consider “CTCAATGCTATCCGATTCTACGTGTCGGGGCCAACCAACCCGGAGTCACCTAGTGCAG”, for which the binding signal was 3600 fluorescence intensity (a.u.).

For “CGTCGAACCGGCGGCGGCCCGCGCCACCCACCCTACCCGCCGGAGTCACCTAGTGCAG”, the binding signal was 49100 fluorescence intensity (a.u.).

Turning to “TAGCCATATGCTAGTGCCCTACCTGACGTGTATGTATCGCCGGAGTCACCTAGTGCAG”, the binding signal is 8980 fluorescence intensity (a.u.).

Turning to “CCCATTTCCAATAACACTATCTGATAGGAGTAGTCAAACACGGAGTCACCTAGTGCAG”, the binding signal is 3310 fluorescence intensity (a.u.).

On to “GCTTTTCTTGTATTCCATCCCACGTAGTTTTCCTGTATTTCGGAGTCACCTAGTGCAG”, for which the binding signal is 3690 fluorescence intensity (a.u.).

Regarding “GTTCCCACCAACCATTTTCCTACGTGGAGGATAGCAACAACGGAGTCACCTAGTGCAG”, the binding signal was 4650 fluorescence intensity (a.u.).

Turning to “CTTCCTCTCTCTCTTCGTCAACACCACTCACTAGCTACTGCGGAGTCACCTAGTGCAG”, the binding signal is 3300 fluorescence intensity (a.u.).

Take “GAGCCGTGCGCATCTGCCGTTAGAATTCGGAGCGTCAGACCGGAGTCACCTAGTGCAG”: the binding signal was 3640 fluorescence intensity (a.u.).

Regarding “ACCACCATTAATATTTCTTGCGCTAGCTGCTTGCGATCTGCGGAGTCACCTAGTGCAG”, the binding signal is 10100 fluorescence intensity (a.u.).

In the case of “CTTTCAGTTACGGGCCCCACCTGTCATTCTCTCACCTCTCCGGAGTCACCTAGTGCAG”, the binding signal is 3290 fluorescence intensity (a.u.).

As for “TTGCAGTGCCACCTCACCGCCACGTAGGATGATGACTAAGCGGAGTCACCTAGTGCAG”, the binding signal was 25800 fluorescence intensity (a.u.).

Turning to “TTTGTGTGGAATTTTGTACAACTCATCGCCATCAGCTTGCCGGAGTCACCTAGTGCAG”, the binding signal is 3790 fluorescence intensity (a.u.).

In the case of “GCCGCCCGCGCGCGACCGCGTGACGTCGCAGCCGCACCGACGGAGTCACCTAGTGCAG”, the binding signal is 6080 fluorescence intensity (a.u.).

As for “GAACGCAAGGGACGACACGACGCCATCGCCATGGCCATCGCGGAGTCACCTAGTGCAG”, the binding signal is 37600 fluorescence intensity (a.u.).

For the sequence “TTATTCGGTGAATAATATAATGGAGTAAGTATACGTACACCGGAGTCACCTAGTGCAG”, the binding signal was 5700 fluorescence intensity (a.u.).

For the sequence “CCACGCGGACACTGACACGTCATCATCGTGTTCGTTTCCTCGGAGTCACCTAGTGCAG”, the binding signal was 39300 fluorescence intensity (a.u.).

Turning to “TCGAGGAGTGGATGGACGGATGGGTGGGTCATCACTGGTCCGGAGTCACCTAGTGCAG”, the binding signal is 3480 fluorescence intensity (a.u.).

Consider “CCCCTCTGTTTCAGGTTATAAGATGAGTTGGCTTTGATCACGGAGTCACCTAGTGCAG”, for which the binding signal is 3390 fluorescence intensity (a.u.).

Regarding “GACTAATGAGGTACTTGTCAATTGTCATCAGATGTGCCAGCGGAGTCACCTAGTGCAG”, the binding signal is 3450 fluorescence intensity (a.u.).

On to “TCCACGCCCCGTCCGCCTCGCTCTCACCCTGCCCCGTCCGCGGAGTCACCTAGTGCAG”, for which the binding signal is 3240 fluorescence intensity (a.u.).

On to “GCCGCTCATGACGTTCATCTTCGGCGACGTCATCAACGCCCGGAGTCACCTAGTGCAG”, for which the binding signal was 8990 fluorescence intensity (a.u.).

As to “ATTTCATAAAACTGCACATTCTGGGGTTCAAGTTGCAGAACGGAGTCACCTAGTGCAG”, the binding signal was 3170 fluorescence intensity (a.u.).

As to “ACGTATACGTGACACCCTCTCTCGCACGATCAGTACTGTACGGAGTCACCTAGTGCAG”, the binding signal was 3480 fluorescence intensity (a.u.).

As for “CTCTCTCCCTCGATACACGTGCCTTTGAGTACCTTTTAGTCGGAGTCACCTAGTGCAG”, the binding signal was 3540 fluorescence intensity (a.u.).

Take “GCCGCCATCATCCACCGGAGGCGCCGCCGGGCGCACGCGGCGGAGTCACCTAGTGCAG”: the binding signal is 3460 fluorescence intensity (a.u.).

As for “CATGTCAGTGTCACTGACCATCTTAGCTAGCAGGACCGTGCGGAGTCACCTAGTGCAG”, the binding signal is 3660 fluorescence intensity (a.u.).

As to “GGAGGAAGGCTACCCTGTTGTCGACTACGAGTCAGACCTTCGGAGTCACCTAGTGCAG”, the binding signal was 3980 fluorescence intensity (a.u.).

Source of the values: PMC7819943, “Rice protein-binding microarrays: a tool to detect cis-acting elements near promoter regions in rice”.
